Source: patent US20200172549A1, “NOVEL CHLORIN E6-CURCUMIN DERIVATIVES, PREPARATION METHOD THEREOF, AND PHARMACEUTICAL COMPOSITION CONTAINING THE SAME FOR TREATMENT OF CANCER” (DONG SUNG PHARM. CO., LTD., priority 2017, published 2020)
Some entries share one result that the patent states for a list of compounds. Some ranges recur; such a range may be that of the whole group of compounds.

Key:
[1] = Stability study in PBS by UV-Visible spectrophotometer; assay type: physicochemical; conditions: room temperature, confirmed by LC-MS
[2] = Photophysical properties (absorption) in DMSO; assay type: physicochemical
Procedure: The photophysical properties of Ce6-curcumin conjugates and dimethyl ester ce6 were analyzed in dimethyl sulfoxide (DMSO). All the photosensitizers 7, 10, 13, and 16 (Formula IV) effectively absorbed the red light compared to dimethyl ester ce6. The major soret peak at λmax=405-408 nm and Q-bands at 667 nm for the photosensitizers 7, 10, 13, and 16 (Formula IV) and Q band peak at 656 for dimethyl ester ce6.

SMILES	Stability in PBS [1]	Major soret peak λmax [2]
C=Cc1c(C)c2cc3nc(c(CC(=O)OC)c4[nH]c(cc5nc(cc1[nH]2)C(C)=C5CC)c(C)c4C(=O)NCCCCCCNC(=O)CCCC(=O)Oc1ccc(/C=C/C(=O)CC(=O)/C=C/c2ccc(O)c(OC)c2)cc1OC)C(CCC(=O)OC)C3C (stereo not drawn) [Compound 10, Chlorine e6-curcumin Conjugate (10)]	up to 60 h	405-408 nm
C=Cc1c(C)c2cc3nc(c(CC(=O)OC)c4[nH]c(cc5nc(cc1[nH]2)C(C)=C5CC)c(C)c4C(=O)NCCOCCOCCNC(=O)CCCC(=O)Oc1ccc(/C=C/C(=O)CC(=O)/C=C/c2ccc(O)c(OC)c2)cc1OC)C(CCC(=O)OC)C3C (stereo not drawn) [Compound 13, Chlorine e6-curcumin Conjugate (13)]	up to 60 h	405-408 nm
C=Cc1c(C)c2cc3nc(c(CC(=O)OC)c4[nH]c(cc5nc(cc1[nH]2)C(C)=C5CC)c(C)c4C(=O)NCCCOCCOCCOCCCNC(=O)CCCC(=O)Oc1ccc(/C=C/C(=O)CC(=O)/C=C/c2ccc(O)c(OC)c2)cc1OC)[C@@H](CCC(=O)OC)[C@@H]3C [Compound 16, Chlorine e6-curcumin Conjugate (16)]	up to 60 h	405-408 nm
